The source of these data is PMC5413060.

These are yes or no findings as the source states them, for the method shown. For some of these results: Binding seen in cells or lysates may run through a third protein. Some results given as binding are weak or reduced against the parent protein; the word gives no strength.

The target of test [1] is T1, SERRATE (SE) (Arabidopsis) (UniProt Q9ZVD0).
T1 sequence: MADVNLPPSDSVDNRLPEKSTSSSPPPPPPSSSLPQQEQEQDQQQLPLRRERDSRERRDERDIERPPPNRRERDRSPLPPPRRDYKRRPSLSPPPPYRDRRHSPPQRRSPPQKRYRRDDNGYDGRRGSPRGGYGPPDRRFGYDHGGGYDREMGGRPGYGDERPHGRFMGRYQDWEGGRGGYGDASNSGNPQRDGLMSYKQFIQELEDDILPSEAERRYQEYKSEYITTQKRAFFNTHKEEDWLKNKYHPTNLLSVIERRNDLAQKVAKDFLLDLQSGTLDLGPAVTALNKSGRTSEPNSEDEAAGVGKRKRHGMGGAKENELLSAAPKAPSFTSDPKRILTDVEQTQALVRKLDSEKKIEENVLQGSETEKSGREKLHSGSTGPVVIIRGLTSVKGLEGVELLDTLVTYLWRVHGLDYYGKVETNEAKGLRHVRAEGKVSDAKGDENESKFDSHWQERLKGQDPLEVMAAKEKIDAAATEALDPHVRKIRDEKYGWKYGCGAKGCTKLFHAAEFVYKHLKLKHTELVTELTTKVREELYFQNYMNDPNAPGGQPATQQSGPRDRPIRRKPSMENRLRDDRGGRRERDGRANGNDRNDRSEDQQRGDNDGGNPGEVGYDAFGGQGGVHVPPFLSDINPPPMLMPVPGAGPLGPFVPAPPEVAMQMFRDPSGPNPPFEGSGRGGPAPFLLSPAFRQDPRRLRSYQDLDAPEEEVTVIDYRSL
Description: split reporter; split luciferase complementation in wild type Arabidopsis protoplasts co-expressing cLUC and nLUC fusion proteins.

The target in test [2] is T1, SERRATE (SE) (Arabidopsis). As to the kind of experiment: two-hybrid; yeast strain AH109 (Clontech); genes in pGBKT7 (Gal4 DNA binding domain) or pGADT7 (Gal4 activation domain); growth on -LTH medium with 3-AT to reduce autoactivation.

B1: SnRK2.2 (enzyme, UniProt Q39192 1-362)
chain: MDPATNSPIMPIDLPIMHDSDRYDFVKDIGSGNFGVARLMTDRVTKELVAVKYIERGEKIDENVQREIINHRSLRHPNIVRFKEVILTPSHLAIVMEYAAGGELYERICNAGRFSEDEARFFFQQLISGVSYCHAMQICHRDLKLENTLLDGSPAPRLKICDFGYSKSSVLHSQPKSTVGTPAYIAPEILLRQEYDGKLADVWSCGVTLYVMLVGAYPFEDPQEPRDYRKTIQRILSVTYSIPEDLHLSPECRHLISRIFVADPATRITIPEITSDKWFLKNLPGDLMDENRMGSQFQEPEQPMQSLDTIMQIISEATIPTVRNRCLDDFMADNLDLDDDMDDFDSESEIDVDSSGEIVYAL
As for B1, the binding result in test [1] and in test [2] was “binds” each time.

B2: SnRK2.3 (enzyme, UniProt Q39193 1-361)
chain: MDRAPVTTGPLDMPIMHDSDRYDFVKDIGSGNFGVARLMRDKLTKELVAVKYIERGDKIDENVQREIINHRSLRHPNIVRFKEVILTPTHLAIIMEYASGGELYERICNAGRFSEDEARFFFQQLLSGVSYCHSMQICHRDLKLENTLLDGSPAPRLKICDFGYSKSSVLHSQPKSTVGTPAYIAPEVLLRQEYDGKIADVWSCGVTLYVMLVGAYPFEDPEEPRDYRKTIQRILSVKYSIPDDIRISPECCHLISRIFVADPATRISIPEIKTHSWFLKNLPADLMNESNTGSQFQEPEQPMQSLDTIMQIISEATIPAVRNRCLDDFMTDNLDLDDDMDDFDSESEIDIDSSGEIVYAL
Regarding B2, the binding result in test [1] and in test [2] was “binds” each time.
